Values from PubChem BioAssay AID1224830 (NIAID, 2016).
Here is a random part of about 18,000 reagents tested. About 2,900 of them (16%) were called active. 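Calls are made per well; low scores hint the gene aids the LPS response, high scores that it dampens it.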 Repeated entries: four replicate wells of each siRNA pool. Reagent sequences are not shown.

Assay: 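Genes whose knock-down alters the TNF-alpha reporter response to LPS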 (primary screen)
Cell system: human THP-1 monocytic leukaemia cells, TNF dual-luciferase reporter clone, PMA-differentiated to macrophage-like cells
Knock-down reagent: siRNA pool against human genes, 50 nM
Time to read-out: LPS for 4 h, given about 3 days after siRNA transfection
Conditions: bacterial LPS (TLR4 ligand), 10 ng/ml
Measurement: 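TNF firefly reporter luminescence divided by renilla, normalised to the plate median, then turned into a robust z-score for each replicate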
Scale: TNF reporter robust z-score: higher = stronger TNF reporter response to LPS
Rule for the call: 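Each well counts as active if its z-score is over 2.8 or under -1.5; controls are left without a call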

Target gene | TNF reporter robust z-score | call
LRP4 (LDL receptor related protein 4) | 0.59 | inactive
LRP4 (LDL receptor related protein 4) | 1.48 | inactive
LRP4 (LDL receptor related protein 4) | 0.39 | inactive
LRP4 (LDL receptor related protein 4) | -0.66 | inactive
WTIP (WT1 interacting protein) | 1.36 | inactive
WTIP (WT1 interacting protein) | 0.89 | inactive
WTIP (WT1 interacting protein) | 1.28 | inactive
WTIP (WT1 interacting protein) | 0.33 | inactive
ACAT2 (acetyl-CoA acetyltransferase 2) | 0.89 | inactive
ACAT2 (acetyl-CoA acetyltransferase 2) | 1.04 | inactive
ACAT2 (acetyl-CoA acetyltransferase 2) | 1.17 | inactive
ACAT2 (acetyl-CoA acetyltransferase 2) | 1.24 | inactive
CNBD1 (cyclic nucleotide binding domain containing 1) | 1.06 | inactive
CNBD1 (cyclic nucleotide binding domain containing 1) | 0.56 | inactive
CNBD1 (cyclic nucleotide binding domain containing 1) | 0.25 | inactive
CNBD1 (cyclic nucleotide binding domain containing 1) | 0.72 | inactive
EID1 (EP300 interacting inhibitor of differentiation 1) | -0.58 | inactive
EID1 (EP300 interacting inhibitor of differentiation 1) | 0.92 | inactive
EID1 (EP300 interacting inhibitor of differentiation 1) | -0.11 | inactive
EID1 (EP300 interacting inhibitor of differentiation 1) | 0.07 | inactive

5 entries from above, sorted by “TNF reporter robust z-score”, lowest first:
Target gene | TNF reporter robust z-score | call
ACAT2 (acetyl-CoA acetyltransferase 2) | 0.89 | inactive
ACAT2 (acetyl-CoA acetyltransferase 2) | 1.04 | inactive
CNBD1 (cyclic nucleotide binding domain containing 1) | 1.06 | inactive
ACAT2 (acetyl-CoA acetyltransferase 2) | 1.17 | inactive
ACAT2 (acetyl-CoA acetyltransferase 2) | 1.24 | inactive

The listing continues:
Target gene | TNF reporter robust z-score | call
PNMA8B (PNMA family member 8B) | – | inactive
PNMA8B (PNMA family member 8B) | -0.92 | inactive
PNMA8B (PNMA family member 8B) | -1.09 | inactive
PNMA8B (PNMA family member 8B) | -0.94 | inactive
PNMA8B (PNMA family member 8B) | -1.53 | active
CCDC51 (coiled-coil domain containing 51) | -0.37 | inactive
CCDC51 (coiled-coil domain containing 51) | 0.08 | inactive
CCDC51 (coiled-coil domain containing 51) | -0.58 | inactive
CCDC51 (coiled-coil domain containing 51) | 0.09 | inactive
LINC02694 (long independently transcribed non-coding RNA 2694) | -1.4 | inactive
LINC02694 (long independently transcribed non-coding RNA 2694) | -0.24 | inactive
LINC02694 (long independently transcribed non-coding RNA 2694) | -1.34 | inactive
LINC02694 (long independently transcribed non-coding RNA 2694) | 0.41 | inactive
KCNC4 (potassium voltage-gated channel subfamily C member 4) | -0.34 | inactive
KCNC4 (potassium voltage-gated channel subfamily C member 4) | -0.45 | inactive
KCNC4 (potassium voltage-gated channel subfamily C member 4) | -0.92 | inactive
KCNC4 (potassium voltage-gated channel subfamily C member 4) | -0.08 | inactive
CELF5 (CUGBP Elav-like family member 5) | -0.08 | inactive
CELF5 (CUGBP Elav-like family member 5) | 0.74 | inactive
CELF5 (CUGBP Elav-like family member 5) | 1.65 | inactive
CELF5 (CUGBP Elav-like family member 5) | -0.04 | inactive
SEMA6C (semaphorin 6C) | -1.3 | inactive
SEMA6C (semaphorin 6C) | 0.92 | inactive
SEMA6C (semaphorin 6C) | 1.16 | inactive
SEMA6C (semaphorin 6C) | 1.54 | inactive
